Laboratory results published in paper PMC3507953.
These are yes or no findings as the source states them, for the method shown. In cells and extracts the contact can be indirect. Some results given as binding are weak or reduced against the parent protein; the word gives no strength. For part of these data: Sequences can lack the tags named with a protein. Blank lines part the entries; values can stand above or below the binder they belong to.

Experiments:
[1] = molecular target: T1, early B cell factor 1 (Ebf1) (native, 3T3-L1 preadipocytes) (mouse (endogenous in 3T3-L1)) (UniProt Q07802); test: co-IP; native proteins of 3T3-L1 preadipocytes; endogenous Ebf1 immunoprecipitated with anti-Ebf1 beads, blotted with normal goat IgG or anti-Zfp521
T1 sequence: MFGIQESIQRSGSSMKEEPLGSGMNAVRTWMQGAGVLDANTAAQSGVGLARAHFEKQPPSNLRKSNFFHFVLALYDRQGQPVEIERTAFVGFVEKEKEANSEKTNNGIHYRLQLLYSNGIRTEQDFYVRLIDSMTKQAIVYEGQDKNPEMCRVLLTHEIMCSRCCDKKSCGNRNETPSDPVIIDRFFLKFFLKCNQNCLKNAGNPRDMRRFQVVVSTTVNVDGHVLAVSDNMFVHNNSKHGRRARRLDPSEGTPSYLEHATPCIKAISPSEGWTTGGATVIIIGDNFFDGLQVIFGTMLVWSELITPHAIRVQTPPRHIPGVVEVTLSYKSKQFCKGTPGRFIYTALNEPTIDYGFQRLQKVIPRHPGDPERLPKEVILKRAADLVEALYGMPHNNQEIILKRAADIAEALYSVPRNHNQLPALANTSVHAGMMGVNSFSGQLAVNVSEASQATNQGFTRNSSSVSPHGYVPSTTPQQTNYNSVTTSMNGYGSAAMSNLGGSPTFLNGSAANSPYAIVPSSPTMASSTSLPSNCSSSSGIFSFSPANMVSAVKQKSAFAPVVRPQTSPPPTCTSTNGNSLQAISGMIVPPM

Myc-Ebf1 (3T3-L1) = molecular target: T2, Myc-Ebf1 (3T3-L1) (UniProt Q07802); test: co-IP; 3T3-L1 preadipocytes transfected with Myc-Ebf1 and Flag-Zfp521WT or Flag-Zfp521Δ27-30, harvested after 24 h; immunoprecipitation with anti-Myc beads, blots with anti-Zfp521, anti-Flag or anti-Myc
T2 sequence: T1 sequence

6Myc-Ebf1 (293T), Q07802 = molecular target: T3, 6Myc-Ebf1 (293T), Q07802; test: co-IP; 293T cells transiently transfected (48 h) with 2HA-Zfp521, 3Flag-Zfp423 and 6Myc-Ebf1 in combinations (also without Ebf1); immunoprecipitation with anti-Flag, anti-HA or anti-Myc as indicated, blots with the same antibodies; conditions: remark: other sources report otherwise
T3 chain: T1 sequence

binding [1]: binds
B1: Zfp521 (native, 3T3-L1 preadipocytes) (protein, UniProt Q6KAS7 1-1311)
chain: MSRRKQAKPRSLKDPNCKLEDKIEDGEAVDCKKRPEDGEELEEDAVHSCDSCLQVFESLSDITEHKIHQCQLTDGVDVEDDPSCSWPASSPSSKDQTSPSHGEGCDFGEEEGGPGLPYPCQFCDKSFSRLSYLKHHEQSHSDKLPFKCTYCSRLFKHKRSRDRHIKLHTGDKKYHCSECDAAFSRSDHLKIHLKTHTSNKPYKCAVCRRGFLSSSSLHGHMQVHERNKDGSQSGSRMEDWKMKDTQKCSQCEEGFDFPEDLQKHIAECHPECSPNEDRAALQCMYCHELFVEETSLMNHIEQVHGGEKKNSCSICSESFLTVEELYSHMDSHQQPESCNHSNSPSLVTVGYTSVSSTTPDSNLSVDSSTMVEAAPPIPKSRGRKRAAQQTSDMTGPSSKQAKVTYSCIYCNKQLFSSLAVLQIHLKTMHLDKPEQAHICQYCLEVLPSLYNLNEHLKQVHEAQDPGLIVSAMPAIVYQCNFCSEVVNDLNTLQEHIRCSHGFANPAAKDSNAFFCPHCYMGFLTDSSLEEHIRQVHCDLSGSRFGSPVLGTPKEPVVEVYSCSYCTNSPIFNSVLKLNKHIKENHKNIPLALNYIHNGKKSRALSPLSPVAIEQTTLKMMQTVGGGPARASGEYICNQCGAKYTSLDSFQTHLKTHLDTVLPKLTCPQCNKEFPNQESLLKHVTIHFMITSTYYICESCDKQFTSVDDLQKHLLDMHTFVFFRCTLCQEVFDSKVSIQLHLAVKHSNEKKVYRCTSCNWDFRNETDLQLHVKHNHLENQGKVHKCIFCGESFGTEVELQCHITTHSKKYNCRFCSKAFHAVILLEKHLREKHCVFETKTPNCGTNGASEQVQKEEAELQTLLTNSQESHNSHDGSEEDVDSSEPMYGCDICGAAYTMETLLQNHQLRDHNIRPGESAIVKKKAELIKGNYKCNVCSRTFFSENGLREHMQTHLGPVKHYMCPICGERFPSLLTLTEHKVTHSKSLDTGNCRICKMPLQSEEEFLEHCQMHPDLRNSLTGFRCVVCMQTVTSTLELKIHGTFHMQKTGNGSSVQTTGRGQHVQKLYKCASCLKEFRSKQDLVKLDINGLPYGLCAGCVNLSKSSSPGLSLPPGASRPGLGQNESLSAMEGKGKAGGLKTRCSSCNVKFESESELQNHIQTVHRELVPDANSTQLKTPQVSPMPRISPSQSDEKKTYQCIKCQMVFYNEWDIQVHVANHMIDEGLNHECKLCSQTFDSPAKLQCHLIEHSFEGMGGTFKCPVCFTVFVQANKLQQHIFSAHGQEDKIYDCTQCPQKFFFQTELQNHTMTQHSS

binding (Myc-Ebf1 (3T3-L1)): binds
B2: Flag-Zfp521WT (3T3-L1) (protein, UniProt Q6KAS7 1-1311)
chain: B1 chain

binding (6Myc-Ebf1 (293T), Q07802): binds
B3: 3Flag-Zfp423 (293T), Q80TS5 1-1292 (protein)
chain: MSRRKQAKPRSVKVEEGEASDFSLAWDSSVAAAGGLEGEPECDRKTSRALEDRNSVTSQEERNEDDEDVEDESIYTCDHCQQDFESLADLTDHRAHRCPGDGDDDPQLSWVASSPSSKDVASPTQMIGDGCDLGLGEEEGGTGLPYPCQFCDKSFIRLSYLKRHEQIHSDKLPFKCTFCSRLFKHKRSRDRHIKLHTGDKKYHCHECEAAFSRSDHLKIHLKTHSSSKPFKCSVCKRGFSSTSSLQSHMQAHKKNKEHLAKSEKEAKKDDFMCDYCEDTFSQTEELEKHVLTLHPQLSEKADLQCIHCPEVFVDESTLLAHIHQAHANQKHKCPMCPEQFSSVEGVYCHLDSHRQPDSSNHSVSPDPVLGSVASMSSATPDSSASVERGSTPDSTLKPLRGQKKMRDDGQSWPKVVYSCPYCSKRDFTSLAVLEIHLKTIHADKPQQSHTCQICLDSMPTLYNLNEHVRKLHKSHAYPVMQFGNISAFHCNYCPEMFADINSLQEHIRVSHCGPNANPPDGNNAFFCNQCSMGFLTESSLTEHIQQAHCSVGSTKLESPVVQPTQSFMEVYSCPYCTNSPIFGSILKLTKHIKENHKNIPLAHSKKSKAEQSPVSSDVEVSSPKRQRLSGSANSISNGEYPCNQCDLKFSNFESFQTHLKLHLELLLRKQACPQCKEDFDSQESLLQHLTVHYMTTSTHYVCESCDKQFSSVDDLQKHLLDMHTFVLYHCTLCQEVFDSKVSIQVHLAVKHSNEKKMYRCTACNWDFRKEADLQVHVKHSHLGNPAKAHKCIFCGETFSTEVELQCHITTHSKKYNCRFCSKAFHAVILLEKHLREKHCVFDAAAENGTANGVPPTSTKKAEPADLQGMLLKNPEAPNSHEASEDDVDASEPMYGCDICGAAYTMEVLLQNHRLRDHNIRPGEDDGSRKKAEFIKGSHKCNVCSRTFFSENGLREHLQTHRGPAKHYMCPICGERFPSLLTLTEHKVTHSKSLDTGTCRICKMPLQSEEEFIEHCQMHPDLRNSLTGFRCVVCMQTVTSTLELKIHGTFHMQKLAGSSAASSPNGQGLQKLYKCALCLKEFRSKQDLVRLDVNGLPYGLCAGCMARSANGQVGGLAPPEPADRPCAGLRCPECNVKFESAEDLESHMQVDHRDLTPETSGPRKGAQTSPVPRKKTYQCIKCQMTFENEREIQIHVANHMIEEGINHECKLCNQMFDSPAKLLCHLIEHSFEGMGGTFKCPVCFTVFVQANKLQQHIFAVHGQEDKIYDCSQCPQKFFFQTELQNHTMSQHAQ
